The record followed here is publication PMC4021201, “Repositioning: the fast track to new anti-malarial medicines?” (Malaria Journal, 2014).

The subject of assay [1] is P. falciparum K1. Put plainly: SYBR I dye DNA staining assay (SJCRH), P. falciparum K1. The settings on record: Plasmodium falciparum, K1, 72 h, read-out: EC50 K1.
The test system of assay [2] is P. falciparum 3D7. In words: SYBR I dye DNA staining assay (SJCRH), P. falciparum 3D7. The settings on record: Plasmodium falciparum, 3D7, 72 h, read-out: EC50 3D7.

Turning to `CO[C@@H]1[C@H](N(C)C(=O)c2ccccc2)C[C@H]2O[C@]1(C)n1c3ccccc3c3c4c(c5c6ccccc6n2c5c31)C(=O)NC4` [Midostaurin], in assay [1], the EC50 (as a rule, the concentration that produces a half-maximal response) turned out to be 150 nM. `O=C(CCCCCCC(=O)Nc1ccccc1)NO` [Vorinostat]: the EC50 was 840 nM in assay [1] and 1470 nM in assay [2].
